This is an account of results in PMC12370185.

Some of the results follow. For some of these results: At the low end of the ranking, values are background and their order means little.

Common to all, as to conditions: 10 mM Tris-Cl pH 7.5, 50 mM NaCl, 1 mM DTT, 0.25 mg/ml BSA, 2 mM MgCl2, 0.025% Nonidet P-40, 5% glycerol; 28 nM nucleosome library; 10 min on ice then 30 min …; high values mean tight binding; double strand, one strand shown
The subject of one experiment is KLF4 + histone octamer. The experiment in a line: EMSA with sequencing.
Experiment [1] concerns c-MYC + MAX + histone octamer. In words: EMSA with sequencing. (A gel shift assay detects complexes by their altered migration in electrophoresis.)
Another experiment relates to OCT4 + histone octamer. In words: Pioneer-seq (competitive nucleosome EMSA with sequencing).
Another experiment concerns SOX2 + histone octamer. The experiment is described as above.

On to “GATGGACCCTATACGCGGCTGGTTTTCTTGCCTATATACACCACATACACCATATACCTATATACCTATACACATGTGGTGTATATAGAAGGGAAGTGTATGTGCTGTGTGTGCTGTGCATACTGTGGGTGGTGTAGTGATATATGCATATGTGGTGTGTGTGGAGTATATTGGGTGTGTGATGTGTATGGTATATATTGGGTGTGTGTGTGCCAGTCGGATAGTGTTCC”, for which the binding signal (log2 relative supershift) with KLF4 + histone octamer is 1.8; in experiment [1], 0.403; with OCT4 + histone octamer it was -0.518; with SOX2 + histone octamer, -0.123.
The like results for “GATGGACCCTATACGCGGCGTATTTGTGCGTGTGTGTGTCTGAGGGTCTGTGTGCATGTGTGTATGTGCTCATGGGTGTGCATTTGTGCACGTGTGTGTGAGTGGCCCAAATGGGCACGCACTGTGTGTCCAGCACACATTGGTTCCCCCATCCCCCTGCACCCCACCCCATCTCCACCCCCCAGGACTTCATACCCATTACCCATGTGCTGCCAGTCGGATAGTGTTCC” were, in that order, 2.09, 1.27, -0.178 and -0.424.
The like results for “GATGGACCCTATACGCGGCCAGGGATGAGTAATTCCACTTGACAGACAGGGAAACCTGAGGACGGTGGTTCTCAGACTTTAGGGGCGTTGCTTCCAGTAAGCAGATGTCTGAGCCACGTGGCAAGGAGGATGAGTCAGCAGGTTTGGGGTGGGGCTGGGTATCTGATGTTTACTCAGACCTCCTCATCCTCATCCTGCAGGTGGGCAGATTGCCAGTCGGATAGTGTTCC” were, in that order, 2.12, 0.131, -0.587 and -1.13.
Regarding “GATGGACCCTATACGCGGCAGTAAGGTGGGCCCTTCACACCATGTGACTGGTATCCTTAAAAGAAGAAGAGACTCAGAGGGAAGACAGCCATGTGCAGCTGGAATGATGCATCTGAAGCCAAGGAATGCCACGCATTGCCAGCCACCACCCAAAACTGGAAAAAGTCAGGAAGGATTCTTCCCTAGAACCTTCAAAGGCAGCACAGCCCTTGCCAGTCGGATAGTGTTCC”, the binding signal (log2 relative supershift) was 2.53 in the experiment with KLF4 + histone octamer, 0.046 in experiment [1], -0.895 with OCT4 + histone octamer and -0.175 in the experiment with SOX2 + histone octamer.
